{
  "source": "patent US20110129826A1",
  "binders": {"B1": {"name": "galectin-2 expressed from the galectin-2 TAP vector (Myc tag at the N-terminus, TAP tag at the C-terminus) (protein, UniProt P05162 1-132, looked up, not shown: small tags and cut ends)", "chain": "MTGELEVKNMDMKPGSTLKITGSIADGTDGFVINLGQGTDKLNLHFNPRFSESTIVCNSLDGSNWGQEQREDHLCFSPGSEVKFTVTFESDKFKVKLPDGHELTFPNRLGHSHLSYLSVRGGFNMSSFKLKE"}, "B2": {"name": "Myc-tagged galectin-2 (protein, UniProt P05162 1-132, looked up, not shown: small tags and cut ends)", "chain": "B1 chain"}},
  "key": {"[1]": {"target": "T1, BRCA1-associated protein (BRAP) from HeLa cell extract (UniProt Q7Z569)", "T1 sequence (looked up)": "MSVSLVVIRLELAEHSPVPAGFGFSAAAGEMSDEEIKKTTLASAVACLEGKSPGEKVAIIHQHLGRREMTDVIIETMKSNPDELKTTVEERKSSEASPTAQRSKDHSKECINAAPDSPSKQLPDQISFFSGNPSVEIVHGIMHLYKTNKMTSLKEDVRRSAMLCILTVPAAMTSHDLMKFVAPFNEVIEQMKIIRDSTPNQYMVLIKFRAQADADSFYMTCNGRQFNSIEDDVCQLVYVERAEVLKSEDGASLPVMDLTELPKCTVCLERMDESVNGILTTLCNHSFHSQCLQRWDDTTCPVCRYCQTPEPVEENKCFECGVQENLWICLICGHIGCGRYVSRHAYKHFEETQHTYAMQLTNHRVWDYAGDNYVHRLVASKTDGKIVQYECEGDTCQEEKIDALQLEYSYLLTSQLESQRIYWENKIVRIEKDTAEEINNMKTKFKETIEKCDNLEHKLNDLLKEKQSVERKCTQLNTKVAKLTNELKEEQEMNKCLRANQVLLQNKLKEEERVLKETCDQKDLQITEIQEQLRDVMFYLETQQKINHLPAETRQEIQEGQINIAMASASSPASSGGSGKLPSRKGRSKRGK", "test": "recap of the tandem affinity purification result of Example 1"}, "S-tagged BRAP [2]": {"target": "T2, S-tagged BRAP (UniProt Q7Z569)", "T2 sequence (looked up)": "T1 sequence (looked up)", "test": "co-immunoprecipitation from co-transfected COS7 cells with S-protein agarose or anti-Myc agarose, in both directions"}, "S-tagged BRAP [3]": {"target": "T2, S-tagged BRAP", "test": "co-immunoprecipitation from co-transfected COS7 cells (legend of FIG. 1b)"}},
  "note": "Results are given in words; binding and its absence hold for the method and conditions named. For part of these data: In cells and extracts the contact can be indirect. Some results given as binding are weak or reduced against the parent protein; the word gives no strength. Tags and fused reporters may be left off the sequences shown.",
  "data": [
    {"binder": "B1", "values": [
      {"measurement": "binding", "setting": "[1]", "value": "binds"}
    ]},
    {"binder": "B2", "values": [
      {"measurement": "binding", "setting": "S-tagged BRAP [2]", "value": "binds"},
      {"measurement": "binding", "setting": "S-tagged BRAP [3]", "value": "binds"}
    ]}
  ]
}
